Consider 17 molecules from patent US20240383993A1.

Sequences of proteins named here, by UniProt entry; tags and fusion partners are left off. A change or cut given only in a name is not applied to a line headed by its entry. A line that says so, or that is headed by a name, gives the form on record, which may keep a tag or linker. Residues count along the entry.
UniProt A9YYE7: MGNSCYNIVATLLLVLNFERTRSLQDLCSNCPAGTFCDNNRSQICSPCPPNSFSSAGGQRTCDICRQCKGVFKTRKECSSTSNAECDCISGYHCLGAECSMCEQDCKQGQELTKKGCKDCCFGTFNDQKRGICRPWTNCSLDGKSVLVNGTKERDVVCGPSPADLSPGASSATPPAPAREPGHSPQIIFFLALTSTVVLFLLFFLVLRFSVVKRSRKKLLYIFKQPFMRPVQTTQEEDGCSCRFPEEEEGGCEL
cynomolgus 4-1BB overexpressed on CHO-K1 cells: residues 24-254 of A9YYE7
His-tagged cynomolgus 4-1BB protein: residues 24-186 of A9YYE7

These are yes or no findings as the source states them, for the method shown. Some entries that bind do so weakly or less than the wild type.

The target of test [1] is His-tagged cynomolgus 4-1BB protein (cynomolgus) (UniProt A9YYE7). Nature of the test: ELISA (FIG. 1A-B). On the technique in general: In an ELISA, binding on a coated surface is turned into a signal by an enzyme label.
Test [2] has as its target cynomolgus 4-1BB overexpressed on CHO-K1 cells (cynomolgus) (UniProt A9YYE7). Nature of the test: flow cytometry on CHO-K1 cells overexpressing 4-1BB. For orientation: In flow cytometry, cells or beads pass a laser one at a time.
For test [3] the target is unchanged. Nature of the test: flow cytometry (FIG. 4A-B).

B1: VV02-1LP-422 (Fc fusion, not shown: a dimerising Fc or GST; small tags and cut ends)
VHH: QLQLVESGGGLVQPGGSLRLSCAASGFTLADYAIGWFRQAPGKEREGVLCISSSGDVTIYADSVKGRFTISRDNAKNTVYLQMNSLKPEDTAVYYCVAPRICSTYSSDDYWGQGTQVTVSS
On to B1, for which, in test [1], the binding result is “binds”.

B2: VV02-1LP-238 (Fc fusion, not shown: a dimerising Fc or GST; small tags and cut ends)
VHH: QVQLVESGGGLVQAGGALRLSCAASGFTLDYSAIGWFRQAPGKEREGVLCISSSGDVTIYADSVKGRFTISRDNAKNTVYLQMNSLKPEDTAVYYCVAPRICSTYSSDDYWGQGTQVTVSS
On to B2, for which the binding result in test [1] is recorded as “binds”.

B3: VV02-2LP-13 (Fc fusion, not shown: a dimerising Fc or GST; small tags and cut ends)
VHH: AVQLVESGGGLVQPGGSLRLSCAASGFTFSSYAMSWARQVPGKGFEWVAYIYSDGSTYYADSVKGRFTISRDNAKDTVYLHMNSLKFEDMAVYYCATWRSQQVGRWDEYDHWGQGTQVTVSS
Consider B3, for which the binding entry in test [1] is given as “binds”.

B4: VV02-1SP (1)-55 (Fc fusion, not shown: a dimerising Fc or GST; small tags and cut ends)
VHH: EVQLVESGGGLVQPGGSLRLSCAASGFTFSSSAMSWARQVPGKGFEWVAYIYSDGSTYYADSVKGRFTISRDNAKDTVYLHMNSLKFEDMAVYYCATWRSQQVGRWDEYDYWGQGIQVTVSS
Take B4: the binding entry in test [1] is “binds”.

B5: VV02-3LP-83 (Fc fusion, not shown: a dimerising Fc or GST; small tags and cut ends)
VHH: EVDLVESGGGLVQPGGSLRLSCAASGFTFRSYAMSWARQVPGKGFEWVAYIYSDGSTYYADSVKGRFTISRDNAKDTVYLHMNSLKFEDMAVYYCATWRSQQVGRWDEYDHWGQGTQVTVSS
For the molecule B5, the binding entry in test [1] is listed as “binds”.

B6: VV02-3LP-142 (Fc fusion, not shown: a dimerising Fc or GST; small tags and cut ends)
VHH: AVQLVESGGGLVQRGGSLKLSCVGSGFDFSDHAMSWARQVPGKGFEWVAYIYSDGSTYYADSVKGRFTISRDNAKDTVYLHMNSLKFEDMAVYYCATWRSQQVGRWDEYDHWGQGTQVTVSS
B6: the binding entry in test [1] is “binds”.

B7: VV02-1SP (1)-358 (Fc fusion, not shown: a dimerising Fc or GST; small tags and cut ends)
VHH: EVQLVESGGGLVQPGGSLMISCAASGFTFSSSAMSWARQVPGKGFEWVAYIYSDGSTYYADSVKGRFTISRDNAKDTVYLHMNSLKFEDMAVYYCATWRSQQVGRWDKYDYWGQGTQVTVSS
Regarding B7, in test [1], the binding entry was “binds”.

B8: VV02-1LP-317 (Fc fusion, not shown: a dimerising Fc or GST; small tags and cut ends)
VHH: EVDLVESGGGLVQPGGSLRLSCAASGFTFSRSAMSWARQAPGKGFEWVSGIYSGGSTYYVDSVEGRFTISRDNAKNTVYLQMNSLKPEDTAVYYCATWGSQQIGVWHEDDYWGQGTQVTVSS
As to B8, in test [1], the binding result is listed as “binds”.

B9: VV02-1SP (1)-168 (Fc fusion, not shown: a dimerising Fc or GST; small tags and cut ends)
VHH: QVQLVESGGGLVQPGGSLRLSCAASGFTFSSYAMSWARQAPGKDFEWVSYIYSDGNTYYADSVKGRFTISRDNAKNTVYLQMNSLKPEDTAVYYCATWHTLRVGVWDEYDYWGQGTQVTVSS
Consider B9, for which the binding result in test [1] is reported as “binds”.

B10: VV02-1SP (1)-73 (Fc fusion, not shown: a dimerising Fc or GST; small tags and cut ends)
VHH: EVDLVESGGGLVQPGGSLRLSCAVSGFTFSNSAMSWARQAPGKEFEWVSSIYSDGKTYYVDSVKGRFTISRDNAKNTVYLQMSSLKPEDTAVYYCATWKTLRVGVWDESDYWGQGTQVTVSS
For B10, in test [1], the binding entry is reported as “binds”.

B11: VV02-1LP-263 huNb_1_2 (Fc fusion, not shown: a dimerising Fc or GST)
VHH: EVQLLESGGGLVQPGGSLRLSCAASGFTFSSSAMSWARQAPGKGLEWVSGIYSGGSTYYTESVKDRFTISRDNSKNTVYLQMNSLKPEDTAVYYCATWGTLRFGVWAEYDHWGQGTLVTVSS
As to B11, the binding result in test [2] and in test [3] was “binds” throughout.

B12: VV02-1LP-263 huNb_1_3 (Fc fusion, not shown: a dimerising Fc or GST)
VHH: EVQLLESGGGLVQPGGSLRLSCAASGFTFSSSAMSWARQTPGKGFEWVSGIYSGGSTYYTESVKDRFTISRDNSKNTVYLQMNSLKPEDTAVYYCATWGTLRFGVWAEYDHWGQGTQVTVSS
For B12, the binding result in test [2] and in test [3] was “binds” each time.

B13: VV02-1LP-263 huNb_3_2 (Fc fusion, not shown: a dimerising Fc or GST)
VHH: QVQLVESGGGLVKPGGSLRLSCAASGFTFSSSAMSWARQAPGKGFEWVSGIYSGGSTYYTESVKDRFTISRDNAKNSLYLQMNSLRPEDTAVYYCATWGTLRFGVWAEYDHWGQGTQVTVSS
For B13, the binding entry in test [2] and in test [3] was “binds” throughout.

B14: VV02-1LP-263 huNb_2_2 (Fc fusion, not shown: a dimerising Fc or GST)
VHH: EVQLVESGGGLVQPGGSLRLSCAASGFTFSSSAMSWARQAPGKGLEWVSGIYSGGSTYYTESVKDRFTISRDNAKNTLYLQMNSLRPEDTAVYYCATWGTLRFGVWAEYDHWGQGTLVTVSS
For B14, the binding entry in test [2] and in test [3] was “binds” in each case.

B15: VV02-1LP-263 (Fc fusion, not shown: a dimerising Fc or GST; small tags and cut ends)
VHH: EVQLVESGGGLVQPGGSLRLSCAASGFTFSSSAMSWARQTPGKGFEWVSGIYSDGSTYYTDSVKDRFTISRDNAKNTVYLQMNSLKPEDTAVYYCATWGTLRFGVWAEYDHWGQGTQVTVSS
For B15, the binding entry in test [1] is on record as “binds”.

B16: VV02-1LP-263 huNb_3_3 (Fc fusion, not shown: a dimerising Fc or GST)
VHH: QVQLVESGGGLVQPGGSLRLSCAASGFTFSSSAMSWARQAPGKGFEWVSGIYSGGSTYYTESVKDRFTISRDNAKNSVYLQMNSLKPEDTAVYYCATWGTLRFGVWAEYDHWGQGTQVTVSS
B16: the binding entry in test [2] and in test [3] was “binds” throughout.

B17: VV02-1LP-263 huNb_2_3 (Fc fusion, not shown: a dimerising Fc or GST)
VHH: EVQLVESGGGLVQPGGSLRLSCAASGFTFSSSAMSWARQAPGKGFEWVSGIYSGGSTYYTESVKDRFTISRDNAKNTVYLQMNSLKPEDTAVYYCATWGTLRFGVWAEYDHWGQGTLVTVSS
Consider B17, for which the binding result in test [2] and in test [3] was “binds” throughout.
